From patent publication US9611303B2, “Modified biotin-binding protein” (Japan Tobacco Inc., priority 2009, dated 2017)

Legend:
[1] = Purification of LATM2 with 2-iminobiotin-agarose; assay type: binding
Protocol: LATM2 was purified through a column charged with 2-iminobiotin-agarose (manufactured by Sigma-Aldrich Corp.) in accordance with the method by Hofmann, et al., (1980). IPTG was added to 25 mL of a culture solution of E. coli transformed with each LATM2 in a final concentration of 1 mM to induce expression. The E. coli cells were collected by centrifugation, suspended in 1.5 mL of 50 mM CAPS (pH 12) containing 50 mM NaCl, and then sonicated. To the supernatant of the disrupted cells, 500 μL of 2-iminobiotin-agarose was added, which was then packed in a column. The column was sufficiently washed with 50 mM CAPS (pH 12) containing 500 mM NaCl, and elution was then performed with 50 mM NH4OAC (pH 4).
(§1) The recovery rate in Table 2 was calculated by dividing the amount of LATM2 protein after purification by the amount of LATM2 protein before purification and was expressed by percent by multiplying the quotient by 100. The degree of purification was the ratio of the amount of LATM2 protein to the total amount of proteins in the purified fraction and was expressed by percent by multiplying the ratio by 100. The recovery rates and the degrees of purification in biotin-agarose were the results after binding at pH 7 and elution with an excess amount of biotin.

[2] = Purification of LATM2 with biotin-agarose; assay type: binding; settings: Biotin-agarose, binding at pH 7, recovery with 10 mM biotin
Protocol: Purification with biotin-agarose (manufactured by Sigma-Aldrich Corp.) was performed by the following procedure. After induced expression of 25 mL of a culture solution of E. coli for each LATM2, the E. coli cells were suspended in 1.5 mL of a 100 mM potassium phosphate buffer (pH 7.0), and then sonicated. To the supernatant of the disrupted cells. 400 μL of biotin-agarose was added, which was followed by upside-down mixing for 1 hr. […]
In TM2 S36A-T78A-D116A, the E. coli cells were suspended in 1.5 mL of 50 mM CAPS (pH 12) containing 50 mM NaCl, and then sonicated. To the disrupted cells, 400 μL of biotin-agarose was added, which was followed by upside-down mixing for 1 hr. The column was sufficiently washed with 50 mM CAPS (pH 12) containing 500 mM NaCl, and elution was then performed with 1 mL of PBS (pH 7.4) containing 10 mM biotin.
In TM2 S36A-D116A, the E. coli cells were suspended in 1.5 mL of a 100 mM potassium phosphate buffer (pH 4.0), and then sonicated. To the pupernatant of the disrupted cells, 400 μL of biotin-agarose was added. Washing was performed with a 100 mM potassium phosphate buffer (pH 4) containing 500 mM NaCl, and elution was performed with 1 mL of PBS (pH 7) containing 10 mM biotin. Biotin binding to LATM2 that has been eluted with an excess amount of biotin was removed by dialysis with a 20 mM potassium phosphate buffer overnight.
as §1

B1: TM2P46T-T78A-D116A: TM2 with P46T, T78A and D116A replacements; SEQ ID NO: 18 (protein)
chain: MSDVQSSLTGTWYNELNSKMELTANKDGTLTGKYLSKVGDVYVPYTLSGRYNLQPPAGQGVALGWAVSWENSKIHSAATWSGQFFSESSPVILTQWLLSSSTARGDVWESTLVGNASFTKTAPTEQQIAHAQLHCRAPRLK
modifications: Synthetic TM2 P46T-T78A-D116A
Degree of purification (%) [1]: 95%
Degree of purification (%) [2]: 95%
